# Results reported in US20220227759A1, “AMORPHOUS PI3K INHIBITOR AND PHARMACEUTICAL COMPOSITION COMPRISING SAME” (BORYUNG PHARMACEUTICAL CO., LTD, priority 2019, published 2022).
# At least one structure is not confirmed: it was looked up by name or label, or the drawing left a doubt.
# Experiments:
# Assay type in all cases: physicochemical
# Long-term stability test = conditions: 25±2° C., 60±5% RH
# [1] = Accelerated stability test; conditions: 40±2° C., RH 75±5%
# Stress stability test = test: Stress stability test
# [2] = Humidity (40° C., RH75%), 7 days
# [3] = Humidity (40° C., RH75%), 14 days
# [4] = Humidity (40° C., RH75%), zero day (initial)
# [5] = Temperature (60° C.), zero day (initial)
smiles,measurement,setting,value
"C[C@H](Nc1ncnc2[nH]ccc(=O)c12)c1c(Cl)c2cccc(Cl)c2c(=O)n1-c1ccccc1 [Example 1, (S)-4-((1-(4,8-dichloro-1-oxo-2-phenyl-1,2-dihydroisoquinoline-3-yl)ethyl)amino)pyrido[2,3-d]pyrimidin-5(8H)-one]",Content (%),Long-term stability test; six months,100.0 wt %
same,Crystal form,Long-term stability test; six months,Amorphous
same,Individual impurity (%),Long-term stability test; six months,0.04 wt %
same,Total impurity (%),Long-term stability test; six months,0.09 wt %
same,change in impurities and contents,Long-term stability test; six months,neither a significant change nor a change over time
same,Content (%),Long-term stability test; zero month (initial),100.2 wt %
same,Crystal form,Long-term stability test; zero month (initial),Amorphous
same,Individual impurity (%),Long-term stability test; zero month (initial),0.04 wt %
same,Total impurity (%),Long-term stability test; zero month (initial),0.08 wt %
same,Content (%),[1]; six months,99.7 wt %
same,Crystal form,[1]; six months,Amorphous
same,Individual impurity (%),[1]; six months,0.04 wt %
same,Total impurity (%),[1]; six months,0.09 wt %
same,change in impurities and contents,[1]; six months,neither a significant change nor a change over time
same,Content (%),[1]; zero month (initial),100.2 wt %
same,Crystal form,[1]; zero month (initial),Amorphous
same,Individual impurity (%),[1]; zero month (initial),0.04 wt %
same,Total impurity (%),[1]; zero month (initial),0.08 wt %
same,change in impurities and contents,"Stress stability test; 60° C. or 40° C., RH75%, up to 14 days",neither a significant change nor a change over time
same,Content (%),Stress stability test; [2],99.5 wt %
same,Individual impurity (%),Stress stability test; [2],0.03 wt %
same,Total impurity (%),Stress stability test; [2],0.32 wt %
same,Content (%),Stress stability test; [3],99.9 wt %
same,Individual impurity (%),Stress stability test; [3],0.03 wt %
same,Total impurity (%),Stress stability test; [3],0.32 wt %
same,Content (%),Stress stability test; [4],100.4 wt %
same,Individual impurity (%),Stress stability test; [4],0.03 wt %
same,Total impurity (%),Stress stability test; [4],0.32 wt %
same,Content (%),"Stress stability test; Temperature (60° C.), 7 days",99.1 wt %
same,Individual impurity (%),"Stress stability test; Temperature (60° C.), 7 days",0.03 wt %
same,Total impurity (%),"Stress stability test; Temperature (60° C.), 7 days",0.33 wt %
same,Content (%),"Stress stability test; Temperature (60° C.), 14 days",99.7 wt %
same,Individual impurity (%),"Stress stability test; Temperature (60° C.), 14 days",0.03 wt %
same,Total impurity (%),"Stress stability test; Temperature (60° C.), 14 days",0.33 wt %
same,Content (%),Stress stability test; [5],100.4 wt %
same,Individual impurity (%),Stress stability test; [5],0.03 wt %
same,Total impurity (%),Stress stability test; [5],0.32 wt %
